Data: US20220213047A1, “CARBONIC ANHYDRASE INHIBITORS FOR TREATMENT OF NEISSERIA GONORRHOEAE INFECTION” (Purdue Research Foundation, priority 2021, published 2022)
Some entries share one result that the patent states for a list of compounds.

Tested on: Lactobacillus spp.
Test: Activity against Lactobacillus species of the female urogenital tract microbiota
Type: cell-based

Row | SMILES | concentrations that inhibited growth of Lactobacillus spp.
1 | CC[C@H]1OC(=O)[C@H](C)[C@@H](O[C@H]2C[C@@](C)(OC)[C@@H](O)[C@H](C)O2)[C@H](C)[C@@H](O[C@@H]2O[C@H](C)C[C@H](N(C)C)[C@H]2O)[C@](C)(O)C[C@@H](C)CN(C)[C@H](C)[C@@H](O)[C@]1(C)O [Azithromycin] | below 1 μg/mL
2 | CO/N=C(\C(=O)N[C@@H]1C(=O)N2C(C(=O)O)=C(CSc3nc(=O)c(=O)[nH]n3C)CS[C@H]12)c1csc(N)n1 [ceftriaxone] | below 1 μg/mL
